According to the supplement of paper PMC7858590:
Several values for one entry are separate records, joined by “and”; a condition that tells them apart may be missing. Equal values may be shown once. ± gives the standard deviation of the averaged measurements. In all, about 3,800 compounds were measured (“cell shape (eccentricity) Z-score vs DMSO control”: median about 1.1, lowest 2% from about -4.7 on). Some of the results follow.

Tested on: human monocyte-derived macrophages (M0)
Test: cell shape (eccentricity) Z-score vs DMSO control; higher = more elongated, M2-like morphology
Conditions: 20 µM; 24 h; macrophage state: M0 (M-CSF)

Compound	cell shape (Z-score)
COc1cc(N)c(Cl)cc1C(=O)NC1CCN(CCCOc2ccc(F)cc2)CC1OC (centres undefined)	-0.721
C/C=C(/C)C(=O)OC1Cc2c(ccc3ccc(=O)oc23)OC1(C)C (centres undefined)	-3.69
O=C(/C=C/c1ccccc1)OCC1=CC[C@@H]2C(C(=O)O)=CO[C@@H](O[C@@H]3O[C@H](CO)[C@@H](O)[C@H](O)[C@H]3O)[C@H]12	1.08
C=C1C(=O)OC2C3=C(C)C(=O)CC3C(C)CC(O)C12 (centres undefined)	-0.0753 ± 3.3
CC[C@]1(O)C[C@@H]2CN(CCc3c([nH]c4ccccc34)[C@@](C(=O)OC)(c3cc4c(cc3OC)N(C=O)[C@H]3[C@@](O)(C(=O)OC)[C@H](OC(C)=O)[C@]5(CC)C=CCN6CC[C@]43[C@@H]65)C2)C1	-0.443
COc1c(O)c(C(=O)CCc2ccccc2)c(OC)c(OC)c1OC	1.92
CC(=O)OC1CC2(C)C(CCC3C4(C)CCC(=O)C(C)C4C(O)C(=O)C32C)/C1=C(\CCC=C(C)C)C(=O)O (centres undefined)	3.67 ± 2.6
C=C1C(=O)O[C@H]2[C@H]1CC/C(C)=C/CC[C@@]1(C)O[C@@H]21	-3.88
COc1cc(C(=O)N2CCOCC2)cc(OC)c1OC	2.78
COC(=O)c1cccc(O)c1C(=O)c1c(O)cc(C)cc1O	-0.639
C[C@@H]1O[C@@H](O[C@@H]2[C@@H](O)[C@H](O[C@@H]3[C@@H](O)[C@@H](O)[C@H](O[C@H]4[C@H](OC(=O)[C@]56CCC(C)(C)C[C@H]5C5=CCC7[C@@]8(C)C[C@H](O)[C@H](O[C@@H]9O[C@H](C(=O)O)[C@@H](O)[C@H](O)[C@H]9O)[C@@](C)(CO)C8[C@H](O)C[C@@]7(C)[C@]5(C)C[C@H]6O)OC[C@H](O)[C@@H]4O)O[C@H]3C)OC[C@H]2O)[C@H](O)[C@H](O)[C@H]1O (some centres undefined)	0.295
C[C@@H]1O[C@@H](OC[C@H]2O[C@@H](Oc3ccc(O)cc3)[C@H](O)[C@@H](OC(=O)c3ccc(O)cc3)[C@@H]2O)[C@H](O)[C@H](O)[C@H]1O	1.4 ± 3.5
NC(=O)c1ccc([N+](=O)[O-])cc1Cl	-0.000275
CN1C(C(=O)Nc2ccccn2)C(=O)c2sccc2S1(=O)=O (centres undefined)	0.954
CCN(CC)CCCC(C)Nc1ccnc2cc(Cl)ccc12 (centres undefined)	-0.0406
CC(=O)O[C@H]1C[C@@H](OC(C)=O)C(C)(C)C2C[C@@H](OC(C)=O)[C@@]3(C)C4=CC(=O)O[C@@H](c5ccoc5)[C@]4(C)CCC3[C@]21C (some centres undefined)	-1.63
COc1ccc(-n2c(SCc3nc(-c4ccc(C)cc4)no3)nnc2-c2ccncc2)cc1	4.45
CO[C@@]12[C@@H]3NC3CN1C1=C(C(=O)C(N)=C(C)C1=O)[C@@H]2COC(N)=O (some centres undefined)	-5.51
CC(C)OC(=O)C(C(=O)OC(C)C)=C1SC=CS1	3.33
Cc1cc(C(C)(C)CC(C)(C)C)ccc1OCCOCC[N+](C)(C)Cc1ccccc1	-4.7
COC(=O)C1=COC(O[C@@H]2O[C@H](CO)[C@@H](O)[C@H](O)[C@H]2O)[C@@H]2[C@@](C)(O)[C@@H](OC(=O)/C=C/c3ccc(OC)cc3)C[C@]12O (some centres undefined)	0.721
C1N2CN3CN1CN(C2)C3	-0.477
Cc1[nH]c2ccccc2c1CCNCc1ccc(/C=C/C(=O)NO)cc1	4.88 and 5.32
CC(=O)OCCN1C(=O)c2c(C)nc3ccc(S(=O)(=O)N4CCOCC4)cc3c2C1=O	0.322
COc1cc(C=CC(=O)N2CCN(CC(=O)NC(C)C)CC2)cc(OC)c1OC	-0.622
c1cc2c3c(c1)c1c(n3CCNC2)CCCC1	0.199
C=CCN1CCN(c2nc3ccccc3nc2C#N)CC1	-0.547

2 entries from above, in markdown:

| Compound | cell shape (Z-score) |
| --- | --- |
| COC(=O)c1cccc(O)c1C(=O)c1c(O)cc(C)cc1O | -0.639 |
| COC(=O)C1=COC(O[C@@H]2O[C@H](CO)[C@@H](O)[C@H](O)[C@H]2O)[C@@H]2[C@@](C)(O)[C@@H](OC(=O)/C=C/c3ccc(OC)cc3)C[C@]12O (some centres undefined) | 0.721 |

(next part)

Compound	cell shape (Z-score)
c1cc(CN2CCCCC2)cc(OCCCNc2nc3ccccc3s2)c1	-0.667
COc1cc(C(=O)OC[C@@]2(O)CO[C@H](OC3C(CO)OC(Oc4cc(OC)c(OC)c(OC)c4)C(O)C3O)[C@@H]2O)cc(OC)c1O (some centres undefined)	1.66 ± 3.6
C[C@]12CCc3occc3C1CC[C@@]13C[C@@H](CCC12)[C@@](O)(CO)C3 (some centres undefined)	1.97
C=CC(C)(O)CC/C=C(\C)C(=O)OC1C2OC2(C)C2C(OC3OC(COC4OC(CO)C(O)C(O)C4O)C(O)C(O)C3O)OC=CC12O (centres undefined)	1.5 ± 0.71
CCOC(=O)[C@H](CCc1ccccc1)N[C@H](C)C(=O)N1C2CCCCC2C[C@H]1C(=O)O (some centres undefined)	1.31
COc1cc(CCc2ccc3c(c2)OCO3)oc(=O)c1	2.03
COc1cc2ccc(=O)oc2cc1OCC=C(C)C	2.46
O=C(OCC1=C[C@@H](O)[C@@H]2C=CO[C@@H](O[C@@H]3O[C@H](CO)[C@@H](O)[C@H](O)[C@H]3O)[C@H]12)c1ccc(O)cc1	2.02
COc1cc(OC)c2c(c1O)OC(c1ccccc1)CC2=O (centres undefined)	1.12
O=C(CCCl)NCc1ccccc1	3.42
CC(C)C[C@H](NC(=O)[C@@H](O)[C@H](N)Cc1ccccc1)C(=O)O	4.84
O=C(O)/C=C/c1ccccc1O[C@@H]1O[C@H](CO)[C@@H](O)[C@H](O)[C@H]1O	1.56
COc1ccc(Cl)cc1C(=O)NCCc1ccc(S(=O)(=O)NC(=O)NC2CCCCC2)cc1	2.43
CC(C)=CCn1cnc(=N)c2[nH]cnc21	1.37
CC(C)(C)c1ccc(S(=O)(=O)NCc2ccc(C(=O)Nc3cccnc3)cc2)cc1	1.14
CCOC(=O)[C@H](CCc1ccccc1)N[C@H]1CCc2ccccc2N(CC(=O)O)C1=O	2.38
CCCCCCCCCCCCCCCC(=O)OC[C@H](NC(=O)C(Cl)Cl)[C@H](O)c1ccc([N+](=O)[O-])cc1	3.85
COc1ccc2c(C)cc(=O)oc2c1	4.64
C=C[C@@](C)(O)CCC1C(=C)CCC2[C@@](C)(CO)CCC[C@]12C (some centres undefined)	4.09
CC1(C)C=Cc2c(c(CCO)c3occ(-c4ccc(O)c(O)c4)c(=O)c3c2O)O1	0.8 ± 0.24
COc1c(-c2coc3cc4c(cc3c2=O)CC(O)C(C)(C)O4)ccc2c1C=CC(C)(C)O2 (centres undefined)	-0.764
CC(C)(C)NCC(O)COc1cccc2c1C[C@H](O)[C@H](O)C2 (some centres undefined)	3.94
CCCc1ncc(C[n+]2ccccc2C)c(N)n1	-0.886
NCCCC(=O)O	-0.672
CNc1cc2c(Nc3cccc(Br)c3)ncnc2cn1	-0.207
COC1=CC(=O)CC(C)C12Oc1cc(OC)cc(O)c1C2=O (centres undefined)	1.27
CN1CCc2cc3c(cc2C2OC(O)c4c(ccc5c4OCO5)C21)OCO3 (centres undefined)	0.865
